PubChem BioAssay AID1259300 | Sanger Institute, 2017
The whole screen tested 794 reagents; this is a random part of them. 18 of all reagents (2.3%) count as active. 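Calls rest on knock-down alone, not drug synergy; depositor treated synergy scores above 0.15 as synergistic; drug doses alone had little viability effect.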 A number with no mark means an inactive call. Viability is capped at 1. Not all columns of the deposit are shown. Not stated in the record: the amount of reagent, the time to read-out.

Screen: 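siRNA screen of kinases and common colorectal cancer mutant genes, alone or with drugs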 (primary screen)
System: HCT15 colorectal cancer cells
Reagent: siRNA pool against human genes
Treatment: anchor drug or DMSO vehicle added 24 h after seeding: BYL719 1 µM, cetuximab 5 µg/ml, trametinib 10 nM; drug doses chosen to barely affect viability alone
Measurement: 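Cell viability after knock-down, as fraction of non-targeting pool wells averaged over replicates, plus robust z-score for knock-down alone; synergy score per drug (BYL719 1 µM, cetuximab 5 µg/ml, trametinib 10 nM)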
Scale: viability z-score, siRNA alone: higher = more viable cells after knock-down; viability vs non-targeting, siRNA alone: higher = more viable cells
Rule for the call: 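a knock-down without drug that drives the robust viability z-score under -3 is active, i.e. essential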
Meaning of the calls: active = essential: knock-down alone lowers viability (z below -3); inactive = no strong viability loss with knock-down alone

Silencing of PDPK1 gave: viability z-score, siRNA alone 0.625; viability vs non-targeting, siRNA alone 1.
Depletion of PHKG2 resulted in: viability z-score, siRNA alone 0.625; viability vs non-targeting, siRNA alone 1.
ERN1 showed viability z-score, siRNA alone 0.122; viability vs non-targeting, siRNA alone 0.963.
Silencing of CDK13 gave: viability z-score, siRNA alone 0.625; viability vs non-targeting, siRNA alone 1.
Depletion of PMVK gave: viability z-score, siRNA alone 0.625; viability vs non-targeting, siRNA alone 1.
With knock-down of NUAK1, the record shows viability z-score, siRNA alone 0.625; viability vs non-targeting, siRNA alone 1.
For TRIB1, the entry reads viability z-score, siRNA alone -0.257; viability vs non-targeting, siRNA alone 0.936.
Silencing of EIF2AK2 gave: viability z-score, siRNA alone -0.37; viability vs non-targeting, siRNA alone 0.928.

Part of the list above, set out differently.
gene,"viability z-score, siRNA alone","viability vs non-targeting, siRNA alone"
PMVK,0.625,1
NUAK1,0.625,1

Continued.
After knock-down of PIK3R5, the screen gave viability z-score, siRNA alone 0.105; viability vs non-targeting, siRNA alone 0.962.
For STK4, the values are viability z-score, siRNA alone -2.46; viability vs non-targeting, siRNA alone 0.775.
For WNK4, the values are viability z-score, siRNA alone 0.179; viability vs non-targeting, siRNA alone 0.968.
MAP3K15 gave viability z-score, siRNA alone 0.625; viability vs non-targeting, siRNA alone 1.
